Record: PubChem BioAssay AID1159600 (NIAID, 2016)
Shown is one part, drawn at random, of 756 deposited reagents. Over the whole deposit, 134 (18%) got an active call. 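Active includes both reduced and increased reporter signal, though most active siRNAs reduce it; R848 dose unknown.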 The numbers tell different reagents against one gene apart. Not stated in the record: the amount of reagent.

Assay: 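How human macrophage-like cells depend on pathway genes for TLR7/8 agonist response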 (primary screen)
System: human THP-1 TNF reporter clone B5, made macrophage-like with PMA
Reagent: single siRNA against human genes
Duration: 4 h ligand stimulation, assayed 48 to 72 h after siRNA transfection
Challenge: R848 (TLR7/8 agonist) for 4 hours before lysis; dose not given
Read-out: 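TNF promoter firefly to renilla luciferase ratio after 4 h R848, scaled per plate by median and MAD, robust z-score against negative controls, mean of replicates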
Scale: TNF reporter z-score: higher = stronger TNF promoter reporter signal after R848
Rule for the call: 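siRNAs graded by distance of mean z-score from zero in steps of 1, 1.5, 2 and 2.5; active calls sit at roughly -1.5 or below, or 1.5 or above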
Calls: active = strong change in TNF reporter (up or down); inactive = little change

TNF reporter z-score, by target gene and reagent
MAPK9 (GeneID 5601): #1 -0.665 inactive; #2 -1.19 inactive; #3 -0.051 inactive; #4 -0.639 inactive; #5 -1.21 inactive; #6 0.591 inactive
TLR9 (GeneID 54106): #1 -0.887 inactive; #2 -0.0696 inactive; #3 -0.207 inactive; #4 0.664 inactive; #5 -0.548 inactive; #6 0.804 inactive
TRAF3 (GeneID 7187): #1 1.56 active; #2 -1.13 inactive; #3 -0.173 inactive; #4 -0.884 inactive; #5 -1.29 inactive; #6 0.089 inactive
CXCL11 (GeneID 6373): #1 -1.53 active; #2 -0.531 inactive; #3 0.254 inactive; #4 -0.374 inactive; #5 -2.21 active; #6 -0.353 inactive
IRAK4 (GeneID 51135): #1 -0.331 inactive; #2 1.15 inactive; #3 -0.532 inactive; #4 -0.532 inactive; #5 -0.341 inactive; #6 -0.672 inactive
IRF9 (GeneID 10379): #1 -1.09 inactive; #2 -1.12 inactive; #3 0.0217 inactive; #4 -2.02 active; #5 -1.36 inactive; #6 -1.33 inactive
UBE2V1 (GeneID 7335): #1 -0.169 inactive; #2 -1.21 inactive; #3 0.426 inactive; #4 -1.05 inactive; #5 -0.68 inactive; #6 0.0946 inactive
AKT1 (GeneID 207): #1 0.778 inactive; #2 -0.325 inactive; #3 -1.43 inactive; #4 -0.566 inactive; #5 0.256 inactive; #6 -2.2 active
ITGAX (GeneID 3687): #1 0.917 inactive; #2 -1.72 active; #3 -0.0882 inactive; #4 -1.22 inactive; #5 -1.62 active; #6 -0.133 inactive
PTPN6 (GeneID 5777): #1 -0.779 inactive; #2 0.144 inactive; #3 -0.528 inactive; #4 -1.17 inactive; #5 -0.864 inactive; #6 -0.16 inactive
STAT1 (GeneID 6772): #1 -0.166 inactive; #2 -0.726 inactive; #3 -1.48 inactive; #4 0.494 inactive; #5 1.27 inactive; #6 0.115 inactive

Quoted from above for reference:
TNF reporter z-score, by target gene and reagent
TRAF3 (GeneID 7187): #1 1.56 active; #2 -1.13 inactive; #3 -0.173 inactive; #4 -0.884 inactive; #5 -1.29 inactive; #6 0.089 inactive
CXCL11 (GeneID 6373): #1 -1.53 active; #2 -0.531 inactive; #3 0.254 inactive; #4 -0.374 inactive; #5 -2.21 active; #6 -0.353 inactive
IRAK4 (GeneID 51135): #1 -0.331 inactive; #2 1.15 inactive; #3 -0.532 inactive; #4 -0.532 inactive; #5 -0.341 inactive

Continued.
TNF reporter z-score, by target gene and reagent
EP300 (GeneID 2033): #1 -2.56 active; #2 -1.88 active; #3 -0.0915 inactive; #4 -1.13 inactive; #5 0.595 inactive; #6 0.498 inactive
RAC1 (GeneID 5879): #1 -0.235 inactive; #2 -1.13 inactive; #3 0.547 inactive; #4 -0.72 inactive; #5 -0.31 inactive; #6 -1.55 active
MAPK8 (GeneID 5599): #1 -0.469 inactive; #2 1.41 inactive; #3 -0.14 inactive; #4 -0.296 inactive; #5 -1.36 inactive; #6 0.532 inactive
NFKB1 (GeneID 4790): #1 -0.931 inactive; #2 1.37 inactive; #3 0.297 inactive; #4 -1.24 inactive; #5 1.43 inactive; #6 0.102 inactive
PTK2B (GeneID 2185): #1 -1.2 inactive; #2 -0.771 inactive; #3 0.964 inactive; #4 -0.919 inactive; #5 -1.36 inactive; #6 1.09 inactive
CCL3 (GeneID 6348): #1 0.144 inactive; #2 -0.655 inactive; #3 0.0883 inactive; #4 -0.677 inactive; #5 0.524 inactive; #6 -0.622 inactive
LBP (GeneID 3929): #1 -0.529 inactive; #2 -0.688 inactive; #3 0.23 inactive; #4 -0.562 inactive; #5 0.986 inactive; #6 -1.51 active
OTUD5 (GeneID 55593): #1 -1.8 active; #2 -0.126 inactive; #3 -1.23 inactive; #4 -0.316 inactive; #5 -0.817 inactive; #6 1.63 active
